Source: patent US10875860B2, “Azaindenoisoquinoline compounds and uses thereof” (Purdue Research Foundation, priority 2016, dated 2020)

Compound: COc1cnc2c(c1)C(=O)c1c-2n(CCCN2CCCC2)c(=O)c2cc(Cl)ccc12 [Compound 16i, 3-Chloro-9-methoxy-6-(3-(pyrrolidin-1-yl)propyl)-5H-pyrido[3′,2′:4,5]cyclopenta[1,2-c]isoquinoline-5,11(6H)-dione]
- melting point: 242 to 244 °C
